Article PMC10656488
Results are given in words; binding and its absence hold for the method and conditions named. For some of these results: Binding seen in cells or lysates may run through a third protein. Some entries that bind do so weakly or less than the wild type. For some of these results: Tags and fused reporters may be left off the sequences shown. One block for each binder: values may come before it.

Sequences of proteins named here, by UniProt entry; tags and fusion partners are left off. A change or cut given only in a name is not applied to a line headed by its entry. A line that says so, or that is headed by a name, gives the form on record, which may keep a tag or linker. Residues count along the entry.
heat shock protein 5 (HSPA5) (mouse (endogenous in peritoneal macrophages)) (P20029, residues 20-655): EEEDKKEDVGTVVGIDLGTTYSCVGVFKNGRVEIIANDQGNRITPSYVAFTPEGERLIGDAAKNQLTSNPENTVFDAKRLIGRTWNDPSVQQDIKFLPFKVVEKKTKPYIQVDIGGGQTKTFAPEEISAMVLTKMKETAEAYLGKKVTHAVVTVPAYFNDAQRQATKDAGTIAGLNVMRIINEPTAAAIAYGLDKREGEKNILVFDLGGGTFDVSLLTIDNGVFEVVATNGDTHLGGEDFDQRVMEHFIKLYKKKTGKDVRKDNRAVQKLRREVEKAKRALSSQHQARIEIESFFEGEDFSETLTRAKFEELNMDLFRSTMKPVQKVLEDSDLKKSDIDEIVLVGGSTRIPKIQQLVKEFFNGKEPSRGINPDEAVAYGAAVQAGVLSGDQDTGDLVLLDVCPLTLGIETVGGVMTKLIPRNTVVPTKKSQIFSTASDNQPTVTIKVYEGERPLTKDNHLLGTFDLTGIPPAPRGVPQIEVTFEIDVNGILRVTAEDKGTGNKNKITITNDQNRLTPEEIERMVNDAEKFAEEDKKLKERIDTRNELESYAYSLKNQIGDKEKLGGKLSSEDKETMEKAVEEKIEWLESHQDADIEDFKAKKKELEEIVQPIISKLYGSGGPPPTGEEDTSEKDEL
HSPA5 protein bearing a K327A mutation (P20029, form named): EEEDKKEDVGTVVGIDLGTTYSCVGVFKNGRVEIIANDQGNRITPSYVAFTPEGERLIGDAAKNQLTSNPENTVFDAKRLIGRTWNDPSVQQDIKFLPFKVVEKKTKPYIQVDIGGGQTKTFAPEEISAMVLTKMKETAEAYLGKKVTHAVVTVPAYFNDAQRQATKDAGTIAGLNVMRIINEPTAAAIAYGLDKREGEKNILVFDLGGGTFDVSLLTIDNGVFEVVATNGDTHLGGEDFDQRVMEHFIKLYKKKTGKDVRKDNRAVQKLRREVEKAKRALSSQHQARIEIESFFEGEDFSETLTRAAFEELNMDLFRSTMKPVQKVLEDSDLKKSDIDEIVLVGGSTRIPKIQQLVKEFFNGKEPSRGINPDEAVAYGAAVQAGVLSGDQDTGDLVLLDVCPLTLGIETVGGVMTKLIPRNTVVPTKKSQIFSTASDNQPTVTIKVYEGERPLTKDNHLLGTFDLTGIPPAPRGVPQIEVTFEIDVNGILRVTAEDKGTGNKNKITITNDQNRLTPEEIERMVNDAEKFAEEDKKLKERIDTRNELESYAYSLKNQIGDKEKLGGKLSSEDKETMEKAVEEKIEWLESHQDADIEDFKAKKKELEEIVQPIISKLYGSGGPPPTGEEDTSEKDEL

Tests used:
[1] = target: T1, SEPTIN2 (SEPT2) (mouse (endogenous in peritoneal macrophages)) (UniProt P42208); assay: co-IP; coimmunoprecipitations of SEPT2 or against HSPA5 (Supplementary Fig. 9d, e); cells and antibodies not shown
T1 sequence: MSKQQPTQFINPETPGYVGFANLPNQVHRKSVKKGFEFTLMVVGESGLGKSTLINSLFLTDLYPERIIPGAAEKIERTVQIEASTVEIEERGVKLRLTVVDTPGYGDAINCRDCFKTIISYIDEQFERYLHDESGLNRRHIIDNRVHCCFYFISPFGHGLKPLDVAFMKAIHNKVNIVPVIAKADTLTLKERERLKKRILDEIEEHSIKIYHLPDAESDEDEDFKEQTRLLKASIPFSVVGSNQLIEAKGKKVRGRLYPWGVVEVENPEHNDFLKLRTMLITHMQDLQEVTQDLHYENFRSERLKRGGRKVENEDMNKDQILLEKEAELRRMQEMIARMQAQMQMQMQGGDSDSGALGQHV

[2] = target: T1, SEPTIN2 (SEPT2) (mouse (endogenous in peritoneal macrophages)); assay: native gel or EMSA; native PAGE (Supplementary Fig. 9a); sample not shown
[3] = target: HA- and Myc-tagged SEPT2 (UniProt P42208); assay: co-IP; WT iBMDMs cotransfected with HA- and Myc-tagged SEPT2
[4] = target: HSPA5 protein bearing a K327A mutation (UniProt P20029); assay: in vitro ubiquitination system, interaction analysed by immunoblots; in vitro ubiquitination system; with or without SEPT2 (Supplementary Fig. 8g)
[5] = target: HSPA5 protein (wild type, in vitro systems, ITC and SPR) (UniProt P20029); assay: as above
[6] = target: HSPA5 protein (wild type, in vitro systems, ITC and SPR) (UniProt P20029); assay: SPR; ATAT1 protein or SCNN1B protein injected over HSPA5 protein; repeated three times independently; both purified
[7] = target: HSPA5 protein (wild type, in vitro systems, ITC and SPR) (UniProt P20029); assay: ITC; ITC-binding curve; repeated three times independently; conditions not shown; both purified
[8] = target: heat shock protein 5 (HSPA5) (mouse (endogenous in peritoneal macrophages)) (UniProt P20029); assay: co-IP
[9] = target: T2, SEPTIN2 (SEPT2) (mouse (endogenous in peritoneal macrophages)), P42208; assay: co-IP; coimmunoprecipitations of SEPT2 or against HSPA5 (Supplementary Fig. 9d, e); cells and antibodies not shown; settings: remark: other sources report otherwise
T2 chain: T1 sequence

- binding [1]: binds
B1: SEPT9 (protein, UniProt Q80UG5 1-583)
chain: MKKSYSGVTRTSSGRLRRLADPTGPALKRSFEVEEIEPPNSTPPRRVQTPLLRATVASSSQKFQDLGVKNSEPAARLVDSLSQRSPKPSLRRVELAGAKAPEPMSRRTEISIDISSKQVESTASAAGPSRFGLKRAEVLGHKTPEPVPRRTEITIVKPQESVLRRVETPASKIPEGSAVPATDAAPKRVEIQVPKPAEAPNCPLPSQTLENSEAPMSQLQSRLEPRPSVAEVPYRNQEDSEVTPSCVGDMADNPRDAMLKQAPASRNEKAPMEFGYVGIDSILEQMRRKAMKQGFEFNIMVVGQSGLGKSTLINTLFKSKISRKSVQPTSEERIPKTIEIKSITHDIEEKGVRMKLTVIDTPGFGDHINNENCWQPIMKFINDQYEKYLQEEVNINRKKRIPDTRVHCCLYFIPATGHSLRPLDIEFMKRLSKVVNIVPVIAKADTLTLEERVYFKQRITADLLSNGIDVYPQKEFDEDAEDRLVNEKFREMIPFAVVGSDHEYQVNGKRILGRKTKWGTIEVENTTHCEFAYLRDLLIRTHMQNIKDITSNIHFEAYRVKRLNEGNSAMANGIEKEPEAQEM

- binding [1]: binds
B2: SEPT7 (protein, UniProt O55131 1-436)
chain: MSVSARSAAAEERSVNCGTMAQPKNLEGYVGFANLPNQVYRKSVKRGFEFTLMVVGESGLGKSTLINSLFLTDLYSPEYPGPSHRIKKTVQVEQSKVLIKEGGVQLLLTIVDTPGFGDAVDNSNCWQPVIDYIDSKFEDYLNAESRVNRRQMPDNRVQCCLYFIAPSGHGLKPLDIEFMKRLHEKVNIIPLIAKADTLTPEECQQFKKQIMKEIQEHKIKIYEFPETDDEEENKLVKKIKDRLPLAVVGSNTIIEVNGKRVRGRQYPWGVAEVENGEHCDFTILRNMLIRTHMQDLKDVTNNVHYENYRSRKLAAVTYNGVDNNKNKGQLTKSPLAQMEEERREHVAKMKKMEMEMEQVFEMKVKEKVQKLKDSEAELQRRHEQMKKNLEAQHKELEEKRRQFEEEKANWEAQQRILEQQNSSRTLEKNKKKGKIF

- binding [2]: binds
B3: SEPTIN2 (SEPT2) (protein, UniProt P42208 1-361)
chain: T1 sequence

- binding [3]: binds
B4: HA- and Myc-tagged SEPT2 (protein, UniProt P42208 1-361)
chain: T1 sequence

- binding [4]: binds
- binding [5]: binds
- binding [6]: binds
- binding [7]: binds weakly
B5: SCNN1B protein (in vitro ubiquitination system, ITC and SPR) (protein, UniProt Q9WU38 1-638)
chain: MPVKKYLLKCLHRLQKGPGYTYKELLVWYCNNTNTHGPKRIICEGPKKKAMWFLLTLLFACLVCWQWGVFIQTYLSWEVSVSLSMGFKTMNFPAVTVCNSSPFQYSKVKHLLKDLDELMEAVLEKILAPEASHSNTTRTLNFTIWNHTPLVLIDERNPDHPVVLNLFGDSHNSSNPAPGSTCNAQGCKVAMRLCSANGTVCTLRNFTSATQAVTEWYILQATNIFSQVLPQDLVGMGYAPDRIILACLFGTEPCSHRNFTPIFYPDYGNCYIFNWGMTEETLPSANPGTEFGLKLILDIGQEDYVPFLASTAGARLMLHEQRTYPFIREEGIYAMAGTETSIGVLVDKLQRKGEPYSPCTMNGSDVAIKNLYSVYNTTYSIQACLHSCFQDHMIRNCSCGHYLYPLPEGEKYCNNRDFPDWAYCYLNLQMSVTQRETCLSMCKESCNDTQYKMTISMADWPSEASEDWILHVLSQERDQSSNITLSRKGIVKLNIYFQEFNYRTIEESPANNIVWLLSNLGGQFGFWMGGSVLCLIEFGEIIIDFIWITIIKLVASCKGLRRRRPQAPYTGPPPTVAELVEAHTNFGFQPDTTSCRPHGEVYPDQQTLPIPGTPPPNYDSLRLQPLDTMESDSEVEAI

- binding [8]: binds
B6: sodium channel epithelial 1 subunit beta (SCNN1B) (protein, UniProt Q9WU38 1-638)
chain: B5 chain

- binding [9]: binds
B7: SEPT6, Q9R1T4 1-434 (protein)
chain: MAAADIARQVGEDCRTVPLAGHVGFDSLPDQLVNKSVSQGFCFNILCVGETGLGKSTLMDTLFNTKFEGEPATHTQPGVQLQSNTYDLQESNVGLKLTIVSTVGFGDQINKEDSYKPIVEFIDAQFEAYLQEELKIRRVLHSYHDSRIHVCLYFIAPTGHSLKSLDLVTMKKLDSKVNIIPVIAKSDAISKSELAKFKIKITSELVSNGVQIYQFPTDDESVSEINGTMNAHLPFAVVGSTEEVKIGNKMMRARQYPWGTVQVENEAHCDFVKLREMLIRVNMEDLREQTHARHYELYRRCKLEEMGFKDTDPDSKPFSLQETYEAKRNEFLGELQKKEEEMRQMFVQRVKEKEAELKEAEKELHEKFDRLKKLHQEEKKKLEDKKKCLDEEMNAFKQRKAAAELLQSQGSQAGGSQTLKRDKEKKNNPWLCIE
